US20130096028A1, “CELL CAPABLE OF EXPRESSING TSLP CONSTANTLY AND AT HIGH LEVEL, AND METHOD FOR SCREENING FOR TSLP MODULATOR UTILIZING THE CELL” (TOHOKU UNIVERSITY, priority 2010, published 2013)
“Also recorded” adds a separate entry of the source. At least one compound was matched to its structure with a doubt left.

How the values were obtained:
[1] = test system: TSLP production of KCMH-1 cell; assay: TSLP production of KCMH-1 cells, TSLP in culture supernatant quantified by ELISA; assay type: cell-based, mouse; details: 0.1 or 1 μM test substance, 24 hours, ELISA (FIG. 2)
Method: The KCMH-1 cells were suspended at a concentration of 1×10^5 cells/ml in an MEMU medium containing 10% FBS. 0.5 ml of the cell suspension was inoculated to each well of a 24-well cluster dish. 24 hours later, the medium was removed, and the cells were washed with phosphate-buffered saline (PBS). Then, 0.5 ml of an MEMU medium containing 10% FBS and each concentration of dexamethasone (0.1 or 1 μM) or FK506 ([…]) was added to the cells. 24 hours later, the culture solution was collected, and TSLP in the supernatant was quantified by ELISA (FIG. 2).
The KCMH-1 cells were suspended at a concentration of 1×10^5 cells/ml in an MEMU medium containing 10% FBS. 0.5 ml of the cell suspension was inoculated to each well of a 24-well cluster dish. […] 24 hours later, the culture solution was collected, and TSLP in the supernatant was quantified by ELISA (FIG. 3).
The KCMH-1 cells were suspended at a concentration of 1×10^5 cells/ml in an MEMU medium containing 10% FBS. […] 24 hours later, the culture solution was collected, and TSLP in the supernatant was quantified by ELISA (FIG. 4).
The KCMH-1 cells were suspended at a concentration of 1×10^5 cells/ml in an MEMU medium containing 10% FBS. […] 24 hours later, the culture solution was collected, and TSLP in the supernatant was quantified by ELISA (FIG. 5).

[2] = test system: TSLP production of normal human keratinocytes; details: poly I:C stimulation in presence of IL-4, IL-13 or TNF-α, 24 hours, supernatant; cited from earlier work

Compound | amount of TSLP produced in the KCMH-1 cell line [1] | TSLP production in normal human keratinocytes [2]
C=CC[C@@H]1/C=C(\C)C[C@H](C)C[C@H](OC)[C@H]2O[C@@](O)(C(=O)C(=O)N3CCCC[C@H]3C(=O)O[C@H](/C(C)=C/[C@@H]3CC[C@@H](O)[C@H](OC)C3)[C@H](C)[C@@H](O)CC1=O)[C@H](C)C[C@@H]2OC [FK506] | not by the addition of FK506 | 
C[C@@H]1C[C@H]2[C@@H]3CCC4=CC(=O)C=C[C@]4(C)[C@@]3(F)[C@@H](O)C[C@]2(C)[C@@]1(O)C(=O)CO [dexamethasone] | evidently reduced; also recorded: remarkably reduces | inhibited
